Tests used:
Aspergillus niger [1] = experiment: Antifungal activity against Aspergillus niger MTCC 281 at 50 ug/ml after 24 hrs by disc diffusion method; type: functional
Aspergillus niger [2] = experiment: Antifungal activity against Aspergillus niger MTCC 281 at 100 ug/ml after 24 hrs by disc diffusion method; type: functional

**Q.** For NYSTATIN, which inhibition zone (IZ) (Aspergillus niger [1]) is on record?
**A.** 10 mm

**Q.** And the inhibition zone (IZ) (Aspergillus niger [2])?
**A.** 20 mm

Source: ChEMBL document CHEMBL3603774, “Novel 5-functionalized-pyrazoles: Synthesis, characterization and pharmacological screening” (Bioorg Med Chem Lett, 2015)
